Measurements taken from the supplement of paper PMC4604168 (melanoma cell lines).
Some of the results follow. Repeats are few or missing, and single values can be far off.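 Cells were imaged in 1,536-well plates, and nuclei stained with an antibody against cleaved PARP were counted against all DNA-stained nuclei to give the apoptosis fraction. Screening doses were chosen to leave most cells alive, and resting and induced cleaved-PARP levels differ strongly between cell lines.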

Experiments:
Experiment in all cases: cleaved PARP positive nuclei fraction relative to DMSO control; melanoma cells; higher = more apoptosis
Details in all cases: library dose: low library concentration; 72 h
501Mel = test system: 501Mel
A101D = test system: A101D
A2058 = test system: A2058
C32 = test system: C32
CBRC008 = test system: CBRC008 (line from a melanoma biopsy)
CBRC014 = test system: CBRC014 (line from a melanoma biopsy)
CBRC016 = test system: CBRC016 (line from a melanoma biopsy)
CBRC017 = test system: CBRC017 (line from a melanoma biopsy)
COLO792 = test system: COLO792
COLO800 = test system: COLO800
COLO829 = test system: COLO829
G361 = test system: G361
IPC-298 = test system: IPC-298
IST-MEL1 = test system: IST-MEL1
LB2518-MEL = test system: LB2518-MEL
LOXIMVI = test system: LOXIMVI
A375 = test system: A375
CBRC034 = test system: CBRC034 (line from a melanoma biopsy)
MEL-HO = test system: MEL-HO

SMILES	cleaved PARP positive nuclei fraction (501Mel)	cleaved PARP positive nuclei fraction (A101D)	cleaved PARP positive nuclei fraction (A2058)	cleaved PARP positive nuclei fraction (C32)	cleaved PARP positive nuclei fraction (CBRC008)	cleaved PARP positive nuclei fraction (CBRC014)	cleaved PARP positive nuclei fraction (CBRC016)	cleaved PARP positive nuclei fraction (CBRC017)	cleaved PARP positive nuclei fraction (COLO792)	cleaved PARP positive nuclei fraction (COLO800)	cleaved PARP positive nuclei fraction (COLO829)	cleaved PARP positive nuclei fraction (G361)	cleaved PARP positive nuclei fraction (IPC-298)	cleaved PARP positive nuclei fraction (IST-MEL1)	cleaved PARP positive nuclei fraction (LB2518-MEL)	cleaved PARP positive nuclei fraction (LOXIMVI)	cleaved PARP positive nuclei fraction (A375)	cleaved PARP positive nuclei fraction (CBRC034)	cleaved PARP positive nuclei fraction (MEL-HO)
COc1ccc(C2=N[C@@H](c3ccc(Cl)cc3)[C@@H](c3ccc(Cl)cc3)N2C(=O)N2CCNC(=O)C2)c(OC(C)C)c1 [Nutlin-3] + COc1ccc2c(c1)CCC1C2CCC2(C)C(NCCCCCCN3C(=O)C=CC3=O)CCC12 [U73122] (first compound 0.1 µM, partner dose 0.4 µM)	69.7%	34.9%	192%	111%	236%	111%	123%	109%	41.4%	92.4%	88.9%	105%	84.5%	146%	88.9%	57.7%			
CC(=O)O[C@@]12CO[C@@H]1C[C@H](O)[C@@]1(C)C(=O)[C@H](O)C3=C(C)[C@@H](OC(=O)[C@H](O)[C@@H](NC(=O)OC(C)(C)C)c4ccccc4)C[C@@](O)([C@@H](OC(=O)c4ccccc4)[C@H]21)C3(C)C [Docetaxel] + COC(=O)c1sccc1S(=O)(=O)Nc1ccc(Nc2ccccc2)cc1OC [GSK0660] (first compound 0.0001 µM, partner dose 1 µM)	205%	89%	937%	142%	129%	431%	168%	160%	937%	119%	132%	556%	392%	115%	116%	270%			
CS(=O)(=O)c1ccc(C(=O)Nc2ccc(Cl)c(-c3ccccn3)c2)c(Cl)c1 [vismodegib] + CC(C)CCN1c2nc(Nc3cc(F)c(O)c(F)c3)ncc2N(C)C(=O)C1C [BID1870] (first compound 1 µM, partner dose 0.2 µM)	29.4%	29.3%	58.2%	73%	161%	129%	74.8%	104%	54.9%	32.5%	100%	201%	25.3%	66%	146%	132%			
Cn1sc(=O)n(Cc2ccccc2)c1=O + COc1ccc2c(c1)CCC1C2CCC2(C)C(NCCCCCCN3C(=O)C=CC3=O)CCC12 [U73122] (first compound 0.4 µM, partner dose 0.4 µM)	36.6%	43.9%	134%	150%	149%	96.7%	60.9%	117%	147%	25.5%	51.8%	190%	122%	94.3%	78%	292%			
C[C@]1(O)C[C@@H](c2nc(-c3ccc4ccc(-c5ccccc5)nc4c3)c3c(N)nccn32)C1 + COC(=O)c1sccc1S(=O)(=O)Nc1ccc(Nc2ccccc2)cc1OC [GSK0660] (first compound 0.4 µM, partner dose 1 µM)	65.1%	87.1%	73.2%	32.6%	207%	83.8%	62.3%	95.7%	171%	80.2%	143%	41.5%	96.6%	85.6%	67.8%	70.9%			
Cn1sc(=O)n(Cc2ccccc2)c1=O + Cc1cc([N+](=O)[O-])ccc1NS(=O)(=O)c1cc(Cl)ccc1Cl [FH535] (first compound 0.4 µM, partner dose 1 µM)	125%	29.1%	91.3%	90.4%	608%	165%	1360%	416%	67.9%	155%	231%	153%	77.3%	89.5%	145%	78.1%			
NC1(c2ccc(-c3nc4ccn5c(=O)[nH]nc5c4cc3-c3ccccc3)cc2)CCC1 + Cn1cc(/C=C2\C(=O)Nc3cccnc32)c2ccccc21 [GW441756] (first compound 0.4 µM, partner dose 0.4 µM)	77.9%	22%	164%	65.8%	112%	91.3%	90.5%	70%	96.6%	13.6%	59.2%	175%	98.7%	76.2%	71.9%	184%			
CC(=O)O[C@@]12CO[C@@H]1C[C@H](O)[C@@]1(C)C(=O)[C@H](O)C3=C(C)[C@@H](OC(=O)[C@H](O)[C@@H](NC(=O)OC(C)(C)C)c4ccccc4)C[C@@](O)([C@@H](OC(=O)c4ccccc4)[C@H]21)C3(C)C [Docetaxel] + CC(C)C[C@H](NC(=O)[C@H](Cc1ccccc1)NC(=O)c1cnccn1)B(O)O [Bortezomib] (first compound 0.0001 µM, partner dose 0.001 µM)		295%	4800%	176%	456%	208%	433%	147%	333%	590%	229%	1000%	842%	227%		88.2%	5800%	91.3%	61.4%
NC(=O)c1ccc(N(C(N)=O)c2c(F)cccc2F)nc1-c1ccc(F)cc1F + CO[C@H]1C[C@@H]2CC[C@@H](C)[C@@](O)(O2)C(=O)C(=O)N2CCCC[C@H]2C(=O)O[C@H]([C@H](C)C[C@@H]2CC[C@@H](OCCO)[C@H](OC)C2)CC(=O)[C@H](C)/C=C(\C)[C@@H](O)[C@@H](OC)C(=O)[C@H](C)C[C@H](C)/C=C/C=C/C=C/1C [everolimus] (first compound 0.4 µM, partner dose 0.02 µM)		34.2%	128%	91.5%	71.2%	98.6%	137%	125%	129%	82.9%	134%	87.1%	115%	78.6%		129%	1300%	88.2%	198%

Individual results from the results shown.
For cleaved PARP positive nuclei fraction (COLO829), Cn1sc(=O)n(Cc2ccccc2)c1=O + Cc1cc([N+](=O)[O-])ccc1NS(=O)(=O)c1cc(Cl)ccc1Cl [FH535] (first compound 0.4 µM, partner dose 1 µM) has 231%
For cleaved PARP positive nuclei fraction (IPC-298), CC(=O)O[C@@]12CO[C@@H]1C[C@H](O)[C@@]1(C)C(=O)[C@H](O)C3=C(C)[C@@H](OC(=O)[C@H](O)[C@@H](NC(=O)OC(C)(C)C)c4ccccc4)C[C@@](O)([C@@H](OC(=O)c4ccccc4)[C@H]21)C3(C)C [Docetaxel] + CC(C)C[C@H](NC(=O)[C@H](Cc1ccccc1)NC(=O)c1cnccn1)B(O)O [Bortezomib] (first compound 0.0001 µM, partner dose 0.001 µM) has 842%
